Results on six molecules are retold here after paper PMC3486646.

Sequences of proteins named here, by UniProt entry; tags and fusion partners are left off. Residues count along the entry.
UniProt O95793, residues 82-577: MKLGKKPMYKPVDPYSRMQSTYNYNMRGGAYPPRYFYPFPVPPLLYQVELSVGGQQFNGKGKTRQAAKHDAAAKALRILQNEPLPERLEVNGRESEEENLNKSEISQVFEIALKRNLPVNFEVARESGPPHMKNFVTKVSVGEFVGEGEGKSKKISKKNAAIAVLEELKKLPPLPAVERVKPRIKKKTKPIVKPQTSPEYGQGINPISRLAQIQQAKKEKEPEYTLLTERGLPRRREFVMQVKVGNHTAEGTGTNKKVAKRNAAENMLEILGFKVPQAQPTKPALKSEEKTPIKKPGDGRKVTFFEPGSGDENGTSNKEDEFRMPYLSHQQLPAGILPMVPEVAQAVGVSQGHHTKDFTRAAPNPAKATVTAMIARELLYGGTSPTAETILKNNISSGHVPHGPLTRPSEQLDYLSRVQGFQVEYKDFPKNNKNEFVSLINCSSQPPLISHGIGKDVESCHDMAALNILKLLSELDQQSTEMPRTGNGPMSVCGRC

No constants are given. Whether binding was seen depends on the method and setting. Binding seen in cells or lysates may run through a third protein. A yes stands for co-enrichment or nearness to the bait. Other partners may have been found.

B1: Pre-mRNA 3′-end-processing factor FIP1 (protein, UniProt Q6UN15 1-594)
chain: MSAGEVERLVSELSGGTGGDEEEEWLYGGPWDVHVHSDLAKDLDENEVERPEEENASANPPSGIEDETAENGVPKPKVTETEDDSDSDSDDDEDDVHVTIGDIKTGAPQYGSYGTAPVNLNIKTGGRVYGTTGTKVKGVDLDAPGSINGVPLLEVDLDSFEDKPWRKPGADLSDYFNYGFNEDTWKAYCEKQKRIRMGLEVIPVTSTTNKITAEDCTMEVTPGAEIQDGRFNLFKVQQGRTGNSEKETALPSTKAEFTSPPSLFKTGLPPSRNSTSSQSQTSTASRKANSSVGKWQDRYGRAESPDLRRLPGAIDVIGQTITISRVEGRRRANENSNIQVLSERSATEVDNNFSKPPPFFPPGAPPTHLPPPPFLPPPPTVSTAPPLIPPPGFPPPPGAPPPSLIPTIESGHSSGYDSRSARAFPYGNVAFPHLPGSAPSWPSLVDTSKQWDYYARREKDRDRERDRDRERDRDRDRERERTRERERERDHSPTPSVFNSDEERYRYREYAERGYERHRASREKEERHRERRHREKEETRHKSSRSNSRRRHESEEGDSHRRHKHKKSKRSKEGKEAGSEPAPEQESTEATPAE
B2: NF-kappaB repressing factor (protein, UniProt A3F768 1-690)
chain: MEKILQMAEGIDIGEMPSYDLVLSKPSKGQKRHLSTCDGQNPPKKQAGSKFHARPRFEPVHFVASSSKDEGQEDPYGPQTKEVNEQTHFASMPRDIYQDYTQDSFSIQDGNSQYCDSSGFILTKDQPVTANMYFDSGNPAPSTTSQQANSQSTPEPSPSQTFPESVVAEKQYFIEKLTATIWKNLSNPEMTSGSDKINYTYMLTRCIQACKTNPEYIYAPLKEIPPADIPKNKKLLTDGYACEVRCQNIYLTTGYAGSKNGSRDRATELAVKLLQKRIEVRVVRRKFKHTFGEDLVVCQIGMSSYEFPPALKPPEDLVVLGKDASGQPIFNASAKHWTNFVITENANDAIGILNNSASFNKMSIEYKYEMMPNRTWRCRVFLQDHCLAEGYGTKKTSKHAAADEALKILQKTQPTYPSVKSSQCHTGSSPRGSGKKKDIKDLVVYENSSNPVCTLNDTAQFNRMTVEYVYERMTGLRWKCKVILESEVIAEAVGVKKTVKYEAAGEAVKTLKKTQPTVINNLKKGAVEDVISRNEIQGRSAEEAYKQQIKEDNIGNQLLRKMGWTGGGLGKSGEGIREPISVKEQHKREGLGLDVERVNKIAKRDIEQIIRNYARSESHTDLTFSRELTNDERKQIHQIAQKYGLKSKSHGVGHDRYLVVGRKRRKEDLLDQLKQEGQVGHYELVMPQAN
B3: Probable ATP-dependent RNA helicase (DDX27) (protein, UniProt Q96GQ7 1-765)
chain: MLADLGLIGTIGEDDEVPVEPESDSGDEEEEGPIVLGRRQKALGKNRSADFNPDFVFTEKEGTYDGSWALADVMSQLKKKRAATTLDEKIEKVRKKRKTEDKEAKSGKLEKEKEAKEGSEPKEQEDLQENDEEGSEDEASETDYSSADENILTKADTLKVKDRKKKKKKGQEAGGFFEDASQYDENLSFQDMNLSRPLLKAITAMGFKQPTPIQKACIPVGLLGKDICACAATGTGKTAAFALPVLERLIYKPRQAPVTRVLVLVPTRELGIQVHSVTRQLAQFCNITTCLAVGGLDVKSQEAALRAAPDILIATPGRLIDHLHNCPSFHLSSIEVLILDEADRMLDEYFEEQMKEIIRMCSHHRQTMLFSATMTDEVKDLASVSLKNPVRIFVNSNTDVAPFLRQEFIRIRPNREGDREAIVAALLTRTFTDHVMLFTQTKKQAHRMHILLGLMGLQVGELHGNLSQTQRLEALRRFKDEQIDILVATDVAARGLDIEGVKTVINFTMPNTIKHYVHRVGRTARAGRAGRSVSLVGEDERKMLKEIVKAAKAPVKARILPQDVILKFRDKIEKMEKDVYAVLQLEAEEKEMQQSEAQINTAKRLLEKGKEAVVQEPERSWFQTKEERKKEKIAKALQEFDLALRGKKKRKKFMKDAKKKGEMTAEERSQFEILKAQMFAERLAKRNRRAKRARAMPEEEPVRGPAKKQKQGKKSVFDEELTNTSKKALKQYRAGPSFEERKQLGLPHQRRGGNFKSKSRYKRRK
B4: Non-POU domain-containing octamer-binding protein (protein, UniProt Q15233 1-471)
chain: MQSNKTFNLEKQNHTPRKHHQHHHQQQHHQQQQQQPPPPPIPANGQQASSQNEGLTIDLKNFRKPGEKTFTQRSRLFVGNLPPDITEEEMRKLFEKYGKAGEVFIHKDKGFGFIRLETRTLAEIAKVELDNMPLRGKQLRVRFACHSASLTVRNLPQYVSNELLEEAFSVFGQVERAVVIVDDRGRPSGKGIVEFSGKPAARKALDRCSEGSFLLTTFPRPVTVEPMDQLDDEEGLPEKLVIKNQQFHKEREQPPRFAQPGSFEYEYAMRWKALIEMEKQQQDQVDRNIKEAREKLEMEMEAARHEHQVMLMRQDLMRRQEELRRMEELHNQEVQKRKQLELRQEEERRRREEEMRRQQEEMMRRQQEGFKGTFPDAREQEIRMGQMAMGGAMGINNRGAMPPAPVPAGTPAPPGPATMMPDGTLGLTPPTTERFGQAATMEGIGAIGGTPPAFNRAAPGAEFAPNKRRRY
B5: Nuclear pore complex protein 155 (protein, UniProt O75694 1-1391)
chain: MPSSLLGAAMPASTSAAALQEALENAGRLIDRQLQEDRMYPDLSELLMVSAPNNPTVSGMSDMDYPLQGPGLLSVPNLPEISSIRRVPLPPELVEQFGHMQCNCMMGVFPPISRAWLTIDSDIFMWNYEDGGDLAYFDGLSETILAVGLVKPKAGIFQPHVRHLLVLATPVDIVILGLSYANLQTGSGVLNDSLSGGMQLLPDPLYSLPTDNTYLLTITSTDNGRIFLAGKDGCLYEVAYQAEAGWFSQRCRKINHSKSSLSFLVPSLLQFTFSEDDPILQIAIDNSRNILYTRSEKGVIQVYDLGQDGQGMSRVASVSQNAIVSAAGNIARTIDRSVFKPIVQIAVIENSESLDCQLLAVTHAGVRLYFSTCPFRQPLARPNTLTLVHVRLPPGFSASSTVEKPSKVHRALYSKGILLMAASENEDNDILWCVNHDTFPFQKPMMETQMTAGVDGHSWALSAIDELKVDKIITPLNKDHIPITDSPVVVQQHMLPPKKFVLLSAQGSLMFHKLRPVDQLRHLLVSNVGGDGEEIERFFKLHQEDQACATCLILACSTAACDREVSAWATRAFFRYGGEAQMRFPTTLPPPSNVGPILGSPVYSSSPVPSGSPYPNPSFLGTPSHGIQPPAMSTPVCALGNPATQATNMSCVTGPEIVYSGKHNGICIYFSRIMGNIWDASLVVERIFKSGNREITAIESSVPCQLLESVLQELKGLQEFLDRNSQFAGGPLGNPNTTAKVQQRLIGFMRPENGNPQQMQQELQRKFHEAQLSEKISLQAIQQLVRKSYQALALWKLLCEHQFTIIVAELQKELQEQLKITTFKDLVIRDKELTGALIASLINCYIRDNAAVDGISLHLQDICPLLYSTDDAICSKANELLQRSRQVQNKTEKERMLRESLKEYQKISNQVDLSNVCAQYRQVRFYEGVVELSLTAAEKKDPQGLGLHFYKHGEPEEDIVGLQAFQERLNSYKCITDTLQELVNQSKAAPQSPSVPKKPGPPVLSSDPNMLSNEEAGHHFEQMLKLSQRSKDELFSIALYNWLIQVDLADKLLQVASPFLEPHLVRMAKVDQNRVRYMDLLWRYYEKNRSFSNAARVLSRLADMHSTEISLQQRLEYIARAILSAKSSTAISSIAADGEFLHELEEKMEVARIQLQIQETLQRQYSHHSSVQDAVSQLDSELMDITKLYGEFADPFKLAECKLAIIHCAGYSDPILVQTLWQDIIEKELSDSVTLSSSDRMHALSLKIVLLGKIYAGTPRFFPLDFIVQFLEQQVCTLNWDVGFVIQTMNEIGVPLPRLLEVYDQLFKSRDPFWNRMKKPLHLLDCIHVLLIRYVENPSQVLNCERRRFTNLCLDAVCGYLVELQSMSSSVAVQAITGNFKSLQAKLERLH
B6: Peroxiredoxin-6 (protein, UniProt P30041 1-224)
chain: MPGGLLLGDVAPNFEANTTVGRIRFHDFLGDSWGILFSHPRDFTPVCTTELGRAAKLAPEFAKRNVKLIALSIDSVEDHLAWSKDINAYNCEEPTEKLPFPIIDDRNRELAILLGMLDPAEKDEKGMPVTARVVFVFGPDKKLKLSILYPATTGRNFDEILRVVISLQLTAEKRVATPVDWKDGDSVMVLPTIPEEEAKKLFPKGVFTKELPSGKKYLRYTPQP

This assay addresses Staufen1-TAP (UniProt O95793). The assay can be described thus: affinity purification with mass spectrometry; tandem affinity purification of Staufen1-TAP from lysates of stable 293T cells, mock or pNL4-3 transfected; eluates on SDS-PAGE, 23 gel slices, in gel trypsin digestion, LC-MS/MS; FDR less than 1%.
With B1, the binding entry is reported as “binds”.
Under B2 stands “binds”; under B3, “binds”; under B4, “binds”.
Under B5 stands “binds”; under B6, “binds”.
